We go through one molecule from article PMC4066777.

Amino acid sequences for entries named in this document (tags omitted).
UniProt Q8NI27: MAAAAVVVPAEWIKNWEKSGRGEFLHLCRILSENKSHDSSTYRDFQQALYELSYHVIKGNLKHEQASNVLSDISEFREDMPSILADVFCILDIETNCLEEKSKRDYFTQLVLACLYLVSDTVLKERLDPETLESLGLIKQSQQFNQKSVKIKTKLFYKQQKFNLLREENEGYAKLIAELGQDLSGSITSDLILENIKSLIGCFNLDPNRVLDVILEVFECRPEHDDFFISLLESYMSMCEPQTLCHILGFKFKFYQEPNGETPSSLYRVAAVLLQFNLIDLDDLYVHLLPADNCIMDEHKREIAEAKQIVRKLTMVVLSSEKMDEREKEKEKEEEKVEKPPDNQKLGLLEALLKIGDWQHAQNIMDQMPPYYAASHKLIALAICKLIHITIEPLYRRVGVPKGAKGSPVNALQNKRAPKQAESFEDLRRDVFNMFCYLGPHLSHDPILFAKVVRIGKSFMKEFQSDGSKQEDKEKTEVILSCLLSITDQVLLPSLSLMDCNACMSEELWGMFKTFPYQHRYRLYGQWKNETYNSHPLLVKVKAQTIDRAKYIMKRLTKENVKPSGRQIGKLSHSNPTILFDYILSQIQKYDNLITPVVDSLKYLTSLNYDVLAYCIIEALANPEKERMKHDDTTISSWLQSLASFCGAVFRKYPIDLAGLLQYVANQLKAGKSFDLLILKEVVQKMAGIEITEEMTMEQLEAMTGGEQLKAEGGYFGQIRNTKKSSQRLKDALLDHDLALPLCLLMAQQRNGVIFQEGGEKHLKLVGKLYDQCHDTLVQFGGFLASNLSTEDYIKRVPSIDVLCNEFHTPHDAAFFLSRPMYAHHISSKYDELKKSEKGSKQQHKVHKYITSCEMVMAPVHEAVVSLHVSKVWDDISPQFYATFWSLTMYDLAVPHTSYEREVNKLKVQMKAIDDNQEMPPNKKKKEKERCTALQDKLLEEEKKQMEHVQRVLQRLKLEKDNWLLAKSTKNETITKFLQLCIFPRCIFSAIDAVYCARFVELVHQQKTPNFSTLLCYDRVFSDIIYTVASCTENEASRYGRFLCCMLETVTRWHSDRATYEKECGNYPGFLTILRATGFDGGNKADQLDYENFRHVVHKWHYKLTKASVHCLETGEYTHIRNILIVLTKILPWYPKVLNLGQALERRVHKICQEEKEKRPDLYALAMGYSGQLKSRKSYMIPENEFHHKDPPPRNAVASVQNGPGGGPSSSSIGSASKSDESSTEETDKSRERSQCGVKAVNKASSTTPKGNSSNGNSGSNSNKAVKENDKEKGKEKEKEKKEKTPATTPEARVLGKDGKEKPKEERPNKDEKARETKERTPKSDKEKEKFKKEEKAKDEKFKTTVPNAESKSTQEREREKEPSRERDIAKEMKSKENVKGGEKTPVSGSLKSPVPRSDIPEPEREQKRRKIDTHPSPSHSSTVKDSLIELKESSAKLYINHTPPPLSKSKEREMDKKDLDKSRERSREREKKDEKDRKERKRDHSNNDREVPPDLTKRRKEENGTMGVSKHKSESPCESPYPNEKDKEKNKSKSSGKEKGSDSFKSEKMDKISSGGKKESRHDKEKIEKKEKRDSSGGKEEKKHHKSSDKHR
UniProt P38919: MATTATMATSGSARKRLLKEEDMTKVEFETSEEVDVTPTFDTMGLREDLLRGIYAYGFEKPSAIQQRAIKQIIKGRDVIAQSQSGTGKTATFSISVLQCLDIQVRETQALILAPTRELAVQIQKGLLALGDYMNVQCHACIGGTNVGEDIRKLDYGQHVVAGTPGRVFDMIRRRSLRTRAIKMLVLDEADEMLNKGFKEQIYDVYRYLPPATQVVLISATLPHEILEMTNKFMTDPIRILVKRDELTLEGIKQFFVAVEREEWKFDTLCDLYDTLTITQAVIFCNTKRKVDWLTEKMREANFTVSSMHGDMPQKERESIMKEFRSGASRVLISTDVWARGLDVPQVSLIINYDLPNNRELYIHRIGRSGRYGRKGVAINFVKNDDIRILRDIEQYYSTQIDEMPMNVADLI

Results are given in words; binding and its absence hold for the method and conditions named. Binding seen in cells or lysates may run through a third protein. Some entries that bind do so weakly or less than the wild type.

Assay [1] has as its target Thoc2 (human (endogenous in HeLa)) (UniProt Q8NI27). In words: co-IP; IP with Thoc2 or eIF4A3 antibody from RNase A-treated lysates of HeLa cells transfected with pcDNA3-ZC3H18; western; binding buffer 20 mM Tris, 100 mM NaCl, 2 mM EDTA, 1 mM DTT, 1 mM PMSF, 0.1% Triton; overnight at 4°C, six washes.
Assay [2] has as its target eIF4AIII (endogenous) (human (endogenous in HeLa)) (UniProt P38919). The assay is described as above.

B1: ZC3H18 (exogenous, from the pcDNA3-ZC3H18 plasmid) (protein, UniProt Q86VM9 1-953)
chain: MDVAESPERDPHSPEDEEQPQGLSDDDILRDSGSDQDLDGAGVRASDLEDEESAARGPSQEEEDNHSDEEDRASEPKSQDQDSEVNELSRGPTSSPCEEEGDEGEEDRTSDLRDEASSVTRELDEHELDYDEEVPEEPAPAVQEDEAEKAGAEDDEEKGEGTPREEGKAGVQSVGEKESLEAAKEKKKEDDDGEIDDGEIDDDDLEEGEVKDPSDRKVRPRPTCRFFMKGNCTWGMNCRFIHPGVNDKGNYSLITKADPFPPNGAPPLGPHPLMPANPWGGPVVDEILPPPPPEPPTESAWERGLRHAKEVLKKATIRKEQEPDFEEKRFTVTIGEDEREFDKENEVFRDWNSRIPRDVRDTVLEPYADPYYDYEIERFWRGGQYENFRVQYTETEPYHNYRERERERERENRQRERERERERDRERERRQRERERERERERDKERQRRKEEWERERAKRDEKDRQHRDRDREKEREKEKGKPKPRSPQPPSRQAEPPKKEAATTGPQVKRADEWKDPWRRSKSPKKKLGVSVSPSRARRRRKTSASSASASNSSRSSSRSSSYSGSGSSRSRSRSSSYSSYSSRSSRHSSFSGSRSRSRSFSSSPSPSPTPSPHRPSIRTKGEPAPPPGKAGEKSVKKPAPPPAPPQATKTTAPVPEPTKPGDPREARRKERPARTPPRRRTLSGSGSGSGSSYSGSSSRSRSLSVSSVSSVSSATSSSSSAHSVDSEDMYADLASPVSSASSRSPAPAQTRKEKGKSKKEDGVKEEKRKRDSSTQPPKSAKPPAGGKSSQQPSTPQQAPPGQPQQGTFVAHKEIKLTLLNKAADKGSRKRYEPSDKDRQSPPPAKRPNTSPDRGSRDRKSGGRLGSPKPERQRGQNSKAPAAPADRKRQLSPQSKSSSKVTSVPGKASDPGAASTKSGKASTLSRREELLKQLKAVEDAIARKRAKIPGKA
With B1, the binding result is “binds” in assay [1] and “no binding” in assay [2].
